No constants are given. Whether binding was seen depends on the method and setting. Binding seen in cells or lysates may run through a third protein. Some entries that bind do so weakly or less than the wild type.
Target: heterogeneous nuclear ribonucleoprotein A1 (human (in human gastric cancer cell lines; the line is not named for this experiment)) (UniProt P09651)
Experiment: co-IP; cell lysate (150 mM KCl, 25 mM Tris-HCl pH 7.4, 5 mM EDTA, 0.5% Triton X-100, 5 mM dithiothreitol) mixed with anti-hnRNPA1, anti-USP7 or isotype control IgG at 4 °C overnight, then beads; western blot

Sequences of proteins named here, by UniProt entry; tags and fusion partners are left off.
UniProt P09651: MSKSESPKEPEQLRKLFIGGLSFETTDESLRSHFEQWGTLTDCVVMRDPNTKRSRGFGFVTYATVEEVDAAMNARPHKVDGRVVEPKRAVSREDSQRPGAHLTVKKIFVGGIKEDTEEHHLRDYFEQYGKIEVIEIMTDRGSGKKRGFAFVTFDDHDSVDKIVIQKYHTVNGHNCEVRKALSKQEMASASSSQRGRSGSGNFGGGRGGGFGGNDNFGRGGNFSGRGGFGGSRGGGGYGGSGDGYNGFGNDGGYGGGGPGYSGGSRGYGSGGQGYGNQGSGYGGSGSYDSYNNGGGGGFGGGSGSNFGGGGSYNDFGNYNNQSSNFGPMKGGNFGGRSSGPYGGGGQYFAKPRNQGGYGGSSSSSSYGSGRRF
UniProt Q93009: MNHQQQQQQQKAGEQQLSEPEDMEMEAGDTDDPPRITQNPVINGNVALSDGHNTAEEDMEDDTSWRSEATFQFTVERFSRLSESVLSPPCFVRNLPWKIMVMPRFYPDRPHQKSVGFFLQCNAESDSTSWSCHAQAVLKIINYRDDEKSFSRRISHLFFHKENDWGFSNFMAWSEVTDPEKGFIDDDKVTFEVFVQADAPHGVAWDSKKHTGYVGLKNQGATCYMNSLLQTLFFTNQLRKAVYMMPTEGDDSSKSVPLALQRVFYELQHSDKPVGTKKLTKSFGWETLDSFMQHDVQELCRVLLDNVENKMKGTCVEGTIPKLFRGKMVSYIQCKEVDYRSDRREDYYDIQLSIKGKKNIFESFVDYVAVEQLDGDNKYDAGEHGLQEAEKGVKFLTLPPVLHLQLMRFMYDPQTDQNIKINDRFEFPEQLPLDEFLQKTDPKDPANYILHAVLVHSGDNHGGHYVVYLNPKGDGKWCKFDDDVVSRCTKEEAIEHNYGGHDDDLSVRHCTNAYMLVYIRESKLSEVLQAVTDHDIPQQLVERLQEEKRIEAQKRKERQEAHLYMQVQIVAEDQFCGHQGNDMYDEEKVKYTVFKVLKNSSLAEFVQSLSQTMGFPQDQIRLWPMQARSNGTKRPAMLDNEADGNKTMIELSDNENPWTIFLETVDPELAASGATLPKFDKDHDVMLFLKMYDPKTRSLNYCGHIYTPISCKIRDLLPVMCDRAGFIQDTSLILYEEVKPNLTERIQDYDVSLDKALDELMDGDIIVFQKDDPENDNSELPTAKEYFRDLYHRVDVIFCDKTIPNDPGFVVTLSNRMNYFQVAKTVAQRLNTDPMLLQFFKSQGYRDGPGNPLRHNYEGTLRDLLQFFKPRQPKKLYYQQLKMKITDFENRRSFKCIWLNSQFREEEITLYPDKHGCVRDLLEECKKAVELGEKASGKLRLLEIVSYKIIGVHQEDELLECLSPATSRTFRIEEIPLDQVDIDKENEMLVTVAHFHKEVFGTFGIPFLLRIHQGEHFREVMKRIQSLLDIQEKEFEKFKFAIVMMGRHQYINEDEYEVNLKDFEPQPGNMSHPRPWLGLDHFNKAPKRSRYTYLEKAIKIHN

USP7 (from UniProt Q93009 1-1102) (enzyme)
binding: binds

From paper PMC8629982
